Reference: PubChem BioAssay AID504744 (Drosophila RNAi Screening Center, 2011)
Aim: 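Find genes whose loss alters insulin-driven dAkt phosphorylation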 (primary screen). System: Drosophila Kc167 cells. Reagent: long dsRNA against Drosophila genes, 250 ng dsRNA per well of a 384-well plate. Time to read-out: 3 days of knock-down, then overnight serum-free starvation before stimulation. Challenge: bovine insulin at 387 nM for 10 minutes after 12 h without serum. Detection: 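Per-well phospho-dAkt level from an in-cell fluorescent antibody stain, divided by a DNA-dye signal; log2 residuals turned into z-scores that take cell number into account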. Rule for the call: 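Hit in the insulin screen when the two-replicate mean z-score is more extreme than plus or minus 2.5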.
In all, the deposit lists about 23,000 reagents; shown is a random part of those with a known target gene and a result. Over the whole deposit, 98 (0.43%) are marked active. 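Only hit calls are given; the phospho-dAkt signals, z-scores and hit direction were not deposited.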 Names joined by + are all predicted targets of the reagent.

no.	Target gene	amplicon	Call
1	His3.3A (GeneID 33736)	DRSC03343	inactive
2	CG31465 (GeneID 42577)	DRSC16090	inactive
3	Hpr1 (GeneID 40723)	DRSC12296	inactive
4	Dmtn (GeneID 40792)	DRSC12513	inactive
5	MFS12 (GeneID 35745)	DRSC07268	inactive
6	CG12766 (GeneID 38462)	DRSC08295	inactive
7	Sobp (GeneID 36260)	DRSC07312	inactive
8	CG2865 (GeneID 31217)	DRSC18527	inactive
9	CG2865 (GeneID 31217)	DRSC18528	inactive
10	CG34024 (retired record) (GeneID 3885580)	DRSC13734	inactive
11	sstn (GeneID 39643)	DRSC10753	inactive
12	sky (GeneID 35359)	DRSC02383	inactive
13	sky (GeneID 35359)	DRSC03214	inactive
14	sky (GeneID 35359)	DRSC03215	inactive
15	bowl (GeneID 33602)	DRSC00805	inactive
16	CG1999 (GeneID 31671)	DRSC18199	inactive
17	CG34386 (GeneID 5740303)	DRSC06467	inactive
18	CG34386 (GeneID 5740303)	DRSC06468	inactive
19	CG3529 (GeneID 39093)	DRSC10369	inactive
20	CG3358 (GeneID 35604)	DRSC04992	inactive
21	slgA (GeneID 33117)	DRSC20586	inactive
22	Ace (GeneID 41625)	DRSC12959	inactive
23	Ace (GeneID 41625)	DRSC14100	inactive
24	lmgA + lmgB	DRSC03566	inactive
25	inaD (GeneID 37629)	DRSC04694	inactive
26	Cht5 (GeneID 41687)	DRSC16470	inactive
27	c(3)G (GeneID 47765)	DRSC15245	inactive
28	CG4594 (GeneID 34316)	DRSC02762	inactive
29	CCHa2-R (GeneID 35535)	DRSC04825	inactive
30	CCHa2-R (GeneID 35535)	DRSC04870	inactive
31	CCHa2-R (GeneID 35535)	DRSC04871	inactive
32	CG13930 (GeneID 38210)	DRSC08399	inactive
33	CG13295 (GeneID 38692)	DRSC09969	inactive
34	E(z) (GeneID 39203)	DRSC11147	inactive
35	CG2962 (GeneID 31952)	DRSC18247	inactive
36	CG6195 (GeneID 42343)	DRSC15989	inactive
37	CG32462 (GeneID 318043)	DRSC11851	inactive
38	CG11158 (GeneID 32327)	DRSC19389	inactive
39	grnd (GeneID 35103)	DRSC02020	inactive
40	CG13251 (GeneID 40286)	DRSC11699	inactive
41	CR14798 (GeneID 31126)	DRSC17956	inactive
42	phtf (GeneID 35583)	DRSC05023	inactive
43	Fbp1 (GeneID 39566)	DRSC11166	inactive
44	Esp (GeneID 42962)	DRSC16664	inactive
45	Klc (GeneID 39445)	DRSC11203	inactive
46	Octbeta1R (GeneID 42652)	DRSC16134	inactive
47	mthl5 (GeneID 41438)	DRSC16155	inactive
48	spg (GeneID 43404)	DRSC14373	inactive
49	spg (GeneID 43404)	DRSC14881	inactive
50	CG17030 (GeneID 38591)	DRSC08503	inactive
51	CG10761 (GeneID 31749)	DRSC17753	inactive
52	CG4456 + Hsp22	DRSC11187	inactive
53	CG4456 + Hsp22	DRSC11192	inactive
54	CG13390 (GeneID 34154)	DRSC02261	inactive
55	CG16789 (GeneID 41154)	DRSC15155	inactive
56	CG6479 (GeneID 39930)	DRSC10647	inactive
57	scpr-A + scpr-C	DRSC15737	inactive
58	CG30026 (GeneID 246399)	DRSC05276	inactive
59	SP1029 (GeneID 53473)	DRSC16848	inactive
60	CG7715 (GeneID 42251)	DRSC16301	inactive
61	CG4995 (GeneID 34390)	DRSC02801	inactive
62	CG8630 (GeneID 41629)	DRSC16441	inactive
63	Alg13 (GeneID 43443)	DRSC14864	inactive
64	CtBP (GeneID 41602)	DRSC16617	inactive
65	P5cr (GeneID 42284)	DRSC16782	inactive
66	CG6664 (GeneID 39903)	DRSC10690	inactive
67	Dtg (GeneID 41558)	DRSC15998	inactive
68	Arp6 (GeneID 32514)	DRSC19326	inactive
69	CG15731 (GeneID 32194)	DRSC19698	inactive
70	CG15731 (GeneID 32194)	DRSC21820	inactive
71	Obp57e (GeneID 326110)	DRSC05891	inactive
72	lncRNA:CR31044 (GeneID 10178917)	DRSC22451	inactive
73	CG6276 (GeneID 41855)	DRSC16007	inactive
74	DppIII (GeneID 40996)	DRSC16241	inactive
75	CG7142 (GeneID 42194)	DRSC16204	inactive
76	CG31538 (GeneID 318790)	DRSC12059	inactive
77	Sumo (GeneID 33981)	DRSC03611	inactive
78	IscU (GeneID 41059)	DRSC16572	inactive
79	CG7881 (GeneID 35521)	DRSC04898	inactive
80	CG34193 (GeneID 5740572)	DRSC05665	inactive
81	Nse1 (GeneID 33938)	DRSC02147	inactive
82	CG6108 (retired record) (GeneID 34733)	DRSC02929	inactive
83	CG31327 (GeneID 318684)	DRSC13019	inactive
84	Vmat + CG13330	DRSC06365	inactive
85	CG16890 (GeneID 34781)	DRSC01890	inactive
86	CG3009 (GeneID 31402)	DRSC18263	inactive
87	CG15478 (GeneID 31679)	DRSC18057	inactive
88	CG34046 (retired record) (GeneID 3885653)	DRSC14075	inactive
89	CG2225 (GeneID 35421)	DRSC03722	inactive
90	CG2225 (GeneID 35421)	DRSC03723	inactive
91	Ibf1 (GeneID 41103)	DRSC16419	inactive
92	CG14518 (GeneID 43421)	DRSC14870	inactive
93	Oct-TyrR (GeneID 42452)	DRSC11883	inactive
94	Sbds (GeneID 38749)	DRSC10992	inactive
95	Mco1 (GeneID 34258)	DRSC02720	inactive
96	CG6497 (GeneID 39924)	DRSC10654	inactive
97	CG6497 (GeneID 39924)	DRSC21469	inactive
98	CG16727 (GeneID 42338)	DRSC15139	inactive
99	Mdr50 (GeneID 36582)	DRSC07467	inactive
100	CG33003 (GeneID 318826)	DRSC22419	inactive
101	CG18823 (GeneID 59184)	DRSC18168	inactive
102	CG32100 (GeneID 39400)	DRSC09725	inactive
103	CG32100 (GeneID 39400)	DRSC10331	inactive
104	Exd2 (GeneID 41374)	DRSC16105	inactive
105	CG32365 (GeneID 38876)	DRSC10040	inactive
106	CG32365 (GeneID 38876)	DRSC10041	inactive
107	CG32365 (GeneID 38876)	DRSC10977	inactive
108	CG9426 (GeneID 34719)	DRSC03219	inactive
109	CG3419 (retired record) (GeneID 37896)	DRSC04368	inactive
110	CG3419 (retired record) (GeneID 37896)	DRSC04369	inactive
111	pelo (GeneID 34286)	DRSC03588	inactive
112	CG7080 (GeneID 42609)	DRSC16193	inactive
113	Pen (GeneID 34338)	DRSC03396	inactive
114	CG4896 (GeneID 33305)	DRSC00671	inactive
115	CG10725 (GeneID 39510)	DRSC09788	inactive
116	CG7137 (GeneID 37204)	DRSC07017	inactive
117	Smg5 (GeneID 34804)	DRSC03124	inactive
118	CG7368 (GeneID 39301)	DRSC10826	inactive
119	CG7368 (GeneID 39301)	DRSC22821	inactive
120	dpp (GeneID 33432)	DRSC00118	inactive
121	dpp (GeneID 33432)	DRSC00121	inactive
122	dpp (GeneID 33432)	DRSC00813	inactive
123	Cdk2 (GeneID 42453)	DRSC16921	inactive
124	Cyp316a1 (GeneID 38840)	DRSC11130	inactive
125	CG30398 (GeneID 246591)	DRSC03891	inactive
126	CG1835 (GeneID 33057)	DRSC20560	inactive
127	CG10395 (GeneID 35490)	DRSC04840	inactive
128	CG34174 (GeneID 5740699)	DRSC00101	inactive
129	hiw (GeneID 32429)	DRSC20338	inactive
130	hiw (GeneID 32429)	DRSC20339	inactive
131	Sirup (GeneID 34089)	DRSC03031	inactive
132	Cyp308a1 (GeneID 32859)	DRSC20238	inactive
133	CG32425 (GeneID 40273)	DRSC11739	inactive
134	CG32425 (GeneID 40273)	DRSC11764	inactive
135	CG1722 (GeneID 33101)	DRSC20547	inactive
136	Dip-B (GeneID 48450)	DRSC16466	inactive
137	Fife (GeneID 38337)	DRSC08262	inactive
138	Cox17 (GeneID 32439)	DRSC20145	inactive
139	CG2113 (GeneID 38356)	DRSC08554	inactive
140	CG17985 (GeneID 35702)	DRSC06702	inactive
141	AsnRS-m (GeneID 36909)	DRSC07010	inactive
142	CG30391 (GeneID 37423)	DRSC21572	inactive
143	Polr3B (GeneID 36289)	DRSC07536	inactive
144	CG12560 (GeneID 34092)	DRSC02174	inactive
145	Blos1 (GeneID 246439)	DRSC05970	inactive
146	Nup43 (GeneID 42209)	DRSC16279	inactive
147	ida (GeneID 45574)	DRSC08163	inactive
148	Lipt1 (GeneID 36795)	DRSC05600	inactive
149	Lipt1 (GeneID 36795)	DRSC07183	inactive
150	ScsbetaG (GeneID 44001)	DRSC11294	inactive
151	ProtB (GeneID 34867)	DRSC03373	inactive
152	Atg9 (GeneID 36821)	DRSC06848	inactive
153	ChAT (GeneID 42249)	DRSC13314	inactive
154	ChAT (GeneID 42249)	DRSC16609	inactive
155	ChAT (GeneID 42249)	DRSC22755	inactive
156	CG34376 (GeneID 42638)	DRSC14695	inactive
157	CG34376 (GeneID 42638)	DRSC14696	inactive
158	CG34376 (GeneID 42638)	DRSC14701	inactive

Not a retest: entries from further up.
no.	Target gene	amplicon	Call
52	CG4456 + Hsp22	DRSC11187	inactive
53	CG4456 + Hsp22	DRSC11192	inactive
54	CG13390 (GeneID 34154)	DRSC02261	inactive
55	CG16789 (GeneID 41154)	DRSC15155	inactive
56	CG6479 (GeneID 39930)	DRSC10647	inactive
57	scpr-A + scpr-C	DRSC15737	inactive
58	CG30026 (GeneID 246399)	DRSC05276	inactive
59	SP1029 (GeneID 53473)	DRSC16848	inactive
60	CG7715 (GeneID 42251)	DRSC16301	inactive
61	CG4995 (GeneID 34390)	DRSC02801	inactive
62	CG8630 (GeneID 41629)	DRSC16441	inactive
63	Alg13 (GeneID 43443)	DRSC14864	inactive
64	CtBP (GeneID 41602)	DRSC16617	inactive
65	P5cr (GeneID 42284)	DRSC16782	inactive
66	CG6664 (GeneID 39903)	DRSC10690	inactive
67	Dtg (GeneID 41558)	DRSC15998	inactive
68	Arp6 (GeneID 32514)	DRSC19326	inactive
69	CG15731 (GeneID 32194)	DRSC19698	inactive
70	CG15731 (GeneID 32194)	DRSC21820	inactive
71	Obp57e (GeneID 326110)	DRSC05891	inactive
72	lncRNA:CR31044 (GeneID 10178917)	DRSC22451	inactive
73	CG6276 (GeneID 41855)	DRSC16007	inactive
74	DppIII (GeneID 40996)	DRSC16241	inactive
